Data as given in PubChem BioAssay AID686938 (Drosophila RNAi Screening Center, 2013).
Assay: 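Knock-downs reducing store-operated calcium influx in Drosophila cells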 (primary screen). System: Drosophila S2R+ cells. Reagents: long dsRNA against Drosophila genes, about 0.25 µg dsRNA per well, roughly 10,000 cells. Duration: 5 days of knock-down before the calcium assay. Challenge: thapsigargin (SERCA pump blocker) to empty calcium stores; entry signal taken 4 min after adding it. Detection: 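Per-well fluo-4 fluorescence in two replicates, unnormalised, measured in resting cells and 4 min after store depletion by the SERCA blocker thapsigargin; ratio of the two present in few wells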. Scale: calcium entry signal: higher = stronger calcium signal after store depletion; resting calcium signal: higher = higher resting calcium signal. Hit rule: 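Hit if the duplicate-averaged plate z-score for entry over resting signal is under −3; wells with weak total dye signal (Fmax z < −2) or more than 5 off-targets removed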. Calls: active = strongly reduced calcium entry; inactive = no strong reduction.
The screen tested about 23,000 reagents; shown is an unselected part of those that have a named target and a result. In the full data, 75 (0.33%) got an active call. 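Raw plate signals without normalisation; calls rest on plate z-scores that were not deposited; ratio present for only 364 wells.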 Names joined by + are all predicted targets of the reagent. The record does not give: the dose of the treatment.

| gene | PubChem SID | calcium entry signal, replicate 1 (fluorescence units) | calcium entry signal, replicate 2 (fluorescence units) | resting calcium signal, replicate 1 (fluorescence units) | resting calcium signal, replicate 2 (fluorescence units) | call |
| --- | --- | --- | --- | --- | --- | --- |
| CG17855 | SID104182430 | 2.41e7 | 3.65e7 | 1.12e7 | 1.53e7 | inactive |
| CG9689 | SID104198232 | 4.01e7 | 4.05e7 | 1.89e7 | 1.79e7 | inactive |
| CG14693 | SID104194708 | 3.54e7 | 3.71e7 | 1.67e7 | 1.69e7 | inactive |
| Ank | SID104196919 | 3.15e7 | 3.26e7 | 1.44e7 | 1.48e7 | inactive |
| kairos | SID104199764 | 3.78e7 | 3.98e7 | 1.77e7 | 1.79e7 | inactive |
| kairos | SID104202643 | 3.75e7 | 4.40e7 | 1.85e7 | 1.78e7 | inactive |
| Trmt61 | SID104194680 | 3.98e7 | 5.19e7 | 2.16e7 | 2.07e7 | inactive |
| pen-2 | SID104185514 | 2.52e7 | 5.65e7 | 1.32e7 | 2.66e7 | inactive |
| CG9839 | SID104196366 | 3.10e7 | 3.23e7 | 1.40e7 | 1.43e7 | inactive |
| CG17470 | SID104182413 | 4.12e7 | – | 2.15e7 | – | inactive |
| pot | SID104199642 | 2.57e7 | 2.99e7 | 1.24e7 | 1.38e7 | inactive |
| Vha100-2 | SID104193944 | 5.44e7 | 4.35e7 | 2.41e7 | 1.83e7 | inactive |
| RpS24 | SID104184206 | 1.96e7 | 2.39e7 | 1.25e7 | 1.44e7 | inactive |
| CG7685 | SID104196077 | 4.43e7 | 4.25e7 | 6.15e7 | 1.94e7 | inactive |
| sphinx1 | SID104190785 | 2.82e7 | 3.36e7 | 1.35e7 | 1.48e7 | inactive |
| Mvd | SID104199888 | 3.88e7 | 3.57e7 | 1.75e7 | 1.80e7 | inactive |
| insb | SID104186787 | 5.39e7 | 4.65e7 | 2.35e7 | 2.20e7 | inactive |
| CG9447 | SID104184800 | 2.33e7 | 2.95e7 | 1.18e7 | 1.23e7 | inactive |
| CG12229 | SID104189660 | 5.35e7 | 6.47e7 | 2.42e7 | 2.76e7 | inactive |
| S-Lap3 | SID104190748 | 3.90e7 | 2.25e7 | 2.69e7 | 1.08e7 | inactive |
| Gmap | SID104199780 | 2.41e7 | 2.88e7 | 1.19e7 | 1.40e7 | inactive |
| Gmap | SID104199849 | 2.71e7 | 2.59e7 | 1.45e7 | 1.11e7 | inactive |
| CG15771 | SID104197869 | 2.83e7 | 4.19e7 | 1.36e7 | 1.80e7 | inactive |
| CG42560 + CG42559 | SID104201509 | 3.02e7 | 6.95e7 | 1.47e7 | 3.25e7 | inactive |

In a second layout: results already given
gene	PubChem SID	calcium entry signal, replicate 1 (fluorescence units)	calcium entry signal, replicate 2 (fluorescence units)	resting calcium signal, replicate 1 (fluorescence units)	resting calcium signal, replicate 2 (fluorescence units)	call
CG9839	SID104196366	3.10e7	3.23e7	1.40e7	1.43e7	inactive
CG17470	SID104182413	4.12e7		2.15e7		inactive
pot	SID104199642	2.57e7	2.99e7	1.24e7	1.38e7	inactive
